Assay results taken from publication doi:10.1101/2022.12.19.520972 (bioRxiv, 2022).
Results are given in words; binding and its absence hold for the method and conditions named.

Protein sequences, listed by entry. Tags and fused reporters are not part of them. Residues count along the entry.
PEX13 SH3-CTR (261-403) (Q92968, residues 261-403): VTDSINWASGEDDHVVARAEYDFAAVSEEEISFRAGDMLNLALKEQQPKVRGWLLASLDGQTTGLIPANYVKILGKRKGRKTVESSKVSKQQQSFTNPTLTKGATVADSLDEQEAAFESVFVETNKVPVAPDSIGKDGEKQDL
PEX13 SH3 (261-346) (Q92968, residues 261-346): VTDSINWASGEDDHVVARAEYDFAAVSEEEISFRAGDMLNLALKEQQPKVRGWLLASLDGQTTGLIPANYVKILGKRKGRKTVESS
UniProt O75381, residues 1-113: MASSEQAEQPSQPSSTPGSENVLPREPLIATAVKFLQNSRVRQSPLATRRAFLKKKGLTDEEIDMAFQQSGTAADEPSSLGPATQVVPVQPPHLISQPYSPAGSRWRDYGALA

Tests used:
[1] = biological target: PEX13 SH3 (261-346) (human) (UniProt Q92968); assay: NMR titration
[2] = biological target: PEX13 SH3-CTR (261-403) (human) (UniProt Q92968); assay: SEC-SLS

Row | Substance | binding [1] | binding [2]
1 | PEX14 NTD_(long) (1-113) (from UniProt O75381 1-113) (domain or fragment) | no binding (tested: 4x excess) | 
2 | PEX13 SH3-CTR (261-403) (from UniProt Q92968 261-403) (domain or fragment) |  | no binding (tested: 2 mg/ml)
